Experimental data as given in ChEMBL document CHEMBL4257587 (J Med Chem, 2018).
pIC50: −log10 of the molar value. ≈ marks a conversion by molar mass, not a printed value.

Experiments:
HepG2 = assay: Cytotoxicity against human HepG2 cells assessed as effect on membrane permeability after 48 hrs by TOTO-3 iodide-staining based cell health assay; format: ADME; settings: HepG2, 48 h
physchem = settings: buffer, pH 7.4

SMILES | pIC50 (HepG2) | solubility kinetic at 1 h (physchem)
FC(F)(F)Oc1ccc(Oc2ccc(N3CCC4(CC3)OCCc3sccc34)cc2)cc1 | 4.90 | 6 µM (≈ 2.77 µg/mL)
CC(C)(C)c1ccc(CN2CCC3(CCCCO3)CC2)cc1 |  | ≥ 596 µM
